Library screening results

The chains behind the UniProt entries cited, without tags or fusion partners.
UniProt E9BF75, entry or part of it: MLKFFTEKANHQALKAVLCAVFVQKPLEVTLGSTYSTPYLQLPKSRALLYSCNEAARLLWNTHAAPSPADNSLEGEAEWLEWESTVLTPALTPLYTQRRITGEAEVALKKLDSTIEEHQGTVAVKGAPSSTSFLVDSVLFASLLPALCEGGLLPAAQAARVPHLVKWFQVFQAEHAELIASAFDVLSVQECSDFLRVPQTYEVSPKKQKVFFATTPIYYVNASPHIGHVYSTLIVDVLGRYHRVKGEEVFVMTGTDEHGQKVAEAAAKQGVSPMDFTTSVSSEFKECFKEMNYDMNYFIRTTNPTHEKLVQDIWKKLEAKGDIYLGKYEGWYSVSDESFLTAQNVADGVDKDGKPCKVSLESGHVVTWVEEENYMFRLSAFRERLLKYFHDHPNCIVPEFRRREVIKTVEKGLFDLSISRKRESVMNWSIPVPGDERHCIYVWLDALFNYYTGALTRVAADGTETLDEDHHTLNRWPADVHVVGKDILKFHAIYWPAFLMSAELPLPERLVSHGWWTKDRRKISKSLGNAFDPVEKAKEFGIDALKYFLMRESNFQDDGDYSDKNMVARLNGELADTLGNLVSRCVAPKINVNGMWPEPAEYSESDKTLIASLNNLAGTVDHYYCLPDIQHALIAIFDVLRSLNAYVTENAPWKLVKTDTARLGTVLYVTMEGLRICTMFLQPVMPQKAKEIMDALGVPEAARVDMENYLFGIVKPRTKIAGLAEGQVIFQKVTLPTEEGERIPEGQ

Mtb heat-shock: 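Assay on Mycobacterium tuberculosis, filed only as a heat shock assay from Cornell; the read-out is not stated. The concentration is filed as 10 mM, unlikely as a test dose, so the dose is not known. The record gives no direction; compounds that gave an IC50 in retests scored well above the rest, so higher reads as stronger inhibition. Size under these conditions: about 69,000 compounds, about 930 of them at 50% or above in at least one test.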
Mtb growth Cornell: 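Whole-cell assay for inhibitors of Mycobacterium tuberculosis growth, labelled Cornell in the record; the read-out is not stated. The concentration is filed as 10 mM, unlikely as a test dose, so the dose is not known. Higher means stronger inhibition (inferred from two other growth screens of the library). Size under these conditions: about 53,000 compounds, about 900 of them at 50% or above in at least one test.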
LdMetRS: 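Methionyl-tRNA synthetase (putative), Leishmania donovani (UniProt E9BF75). Primary screen of methionyl-tRNA synthetase; the read-out is not stated. The test concentration is not given. Values are per cent inhibition. Size under these conditions: about 68,000 compounds, about 24 of them at 50% or above in at least one test.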

All values are in %. The controls that fix the scale are not given in the record; negative values are as filed. This is an unselected part of the compounds tested. A dash means the value is not listed here; it may have been measured.

structure	Mtb heat-shock	Mtb growth Cornell	LdMetRS
O=C1CCC2(CCN(Cc3ccc(F)cc3Cl)CC2)CN1CCO	-37.09	-18.71	11.73
CC(C)NC(=O)N1CCc2onc(C(=O)Nc3cccnc3)c2C1.O=C(O)C(F)(F)F	-4.071	-	-
CCCn1ncc(CN2CCCC(C(=O)c3ccc(Cl)cc3C)C2)c1C (stereo not given)	-5.099	17.39	15.08
CN(Cc1nc2c(cnn2C)c(=O)[nH]1)Cc1ccco1	-21.81	-40.43	8.832
CCN1CCC(c2nc3ccc(NC(C)C)cn3n2)CC1	-	-	8.571
CCc1noc(CS(=O)(=O)C/C=C/c2ccccc2)n1	29.86	15.32	7.317
CCC1c2ccsc2CCN1C(=O)NCc1cc[nH]n1 (stereo not given)	10.13	5.511	5.521
CC(=O)N1C[C@H](NS(=O)(=O)Cc2cccc(Cl)c2)[C@@H](C(C)C)C1	15.23	39.55	14.74
Cc1nc(NCc2noc(C3CCCO3)n2)c2ccsc2n1 (stereo not given)	12.93	26.4	16.33
CC(Oc1ccccc1C(F)(F)F)C(=O)NCC(N)=O (stereo not given)	15.54	-32.94	13.33
CN(C)c1cccc(C(=O)N2CCn3c(nnc3-c3ccccc3)C2)c1	5.843	1.385	13.12
COCCC1(C(=O)O)CCCN(Cc2ccccc2OCCO)C1 (stereo not given)	9.237	-2.457	6.923
c1cnc(Nc2cc(CCC3CCCNC3)ccn2)cn1 (stereo not given)	-	-	11.11
CCC(CN1CCOCC1)n1cncc1-c1ccc2c(c1)CCCN2C.Cl (stereo not given)	16.42	15.31	-
CC(C)[C@@H]1CN(C2CCN(Cc3ccccc3)CC2)C[C@H]1NS(C)(=O)=O	-33.22	-53.64	16.24
O=C(c1ccccc1)N1CCN(C2CCc3ccc(F)cc32)CC1 (stereo not given)	-12.84	45.91	9.783
COCCC1COC2(CCN(C(=O)C3CCC3)CC2)C1 (stereo not given)	15.12	-31.1	11.68
O=C(O)C(F)(F)F.[H][C@@]12CCN(C(=O)c3ccc[nH]3)C[C@]1([H])[C@@H](CN(C)C)OC2	1.78	-36.72	-
CC(=O)c1c(C)cc(C)c(Cn2ccnc2S(C)(=O)=O)c1C	7.725	-17.89	19.29
Cn1c(C(F)(F)F)nn(CCNC(=O)NCc2ccccc2)c1=O	9.725	-12.97	9.36
CC(=O)N1CCN(CC(=O)N2CCN(c3cccc(C)c3)CC2)CC1	-28.99	-4.079	3.546
O=c1ccc2c(n1CC1CC1)CCC(NCc1cccs1)C2 (stereo not given)	-	-	10.56
CNc1oc(-c2cc(S(=O)(=O)N3CCCCCC3)c(C)o2)nc1C#N	26.31	-	7.884
CN1C(=O)CC(C(=O)O)C12CCN(c1ccc3ccccc3n1)CC2 (stereo not given)	8.504	9.355	4.604
O=C1CCCN1CCCN1CCCC(Cn2cncn2)C1 (stereo not given)	-1.319	-60.92	4.348
CCC(OC)C(=O)N1CCc2nc(NC)nc(C(=O)N3CCCC3)c2C1 (stereo not given)	9.591	36.43	8.5
CCN1CC2(CC1=O)CN(Cc1ccc(C)o1)CCN(C(=O)C(C)C)C2.O=C(O)C(F)(F)F (stereo not given)	-32.78	8.851	-
Cc1nc(CCNC(=O)NC2CCCN(c3ncccn3)C2)cs1 (stereo not given)	-16.08	-20.7	13.5
COCC1c2nnn(CC3CC3)c2CCN1C(=O)c1ccncn1 (stereo not given)	-3.108	-33.28	-3.78
COCCNC(=O)c1cccnc1Oc1ccc(Cl)cc1	50.01	-16.86	8.056
Cc1nn(C)cc1CN(Cc1ccccn1)Cc1ccccc1Cl	53.11	13.43	7.874
Cc1cnn(CC2CN(Cc3cccnc3)CCO2)c1 (stereo not given)	-10.63	-23.97	21.37
O=C1CO[C@H]2CN(C3CCOCC3)C[C@H]2N1Cc1ccncc1	-	-	11.19
Cc1cccc2c(=O)n(C(C)Cc3cccnc3)cnc12 (stereo not given)	-3.642	16.51	11.94
Cc1ncc(CN2CCN(C(=O)C3CCC3)[C@@H]3CS(=O)(=O)C[C@@H]32)cn1	-	-	13.87
CCOc1ccc(C(=O)N2CCCCC2Cn2nc(C)cc2C)cn1 (stereo not given)	-23.74	-21.07	3.989
CCn1c(C2CCCN(Cc3cc(C)cc(C)c3)C2)nn(C)c1=O (stereo not given)	8.604	-	9.253
Cc1nc(CNC(=O)CC2C(=O)NCCN2Cc2ccccc2C)n[nH]1 (stereo not given)	19.62	-7.872	8.193
O=C(CCn1ccc2cc(Br)ccc21)/N=c1\[nH]nc(C2CCCO2)s1 (stereo not given)	-5.059	27.05	11.78
Cc1cc(C)n2cc(CN3CCCC3Cn3nc(C)nc3C)nc2n1 (stereo not given)	-20.06	-	23.08
CNc1nc(CS(=O)(=O)c2ccccc2)cs1	-21.54	106.2	7.143

3 of the entries, repeated:

structure,Mtb heat-shock,Mtb growth Cornell,LdMetRS
CNc1oc(-c2cc(S(=O)(=O)N3CCCCCC3)c(C)o2)nc1C#N,26.31,-,7.884
O=c1ccc2c(n1CC1CC1)CCC(NCc1cccs1)C2 (stereo not given),-,-,10.56
O=C(c1ccccc1)N1CCN(C2CCc3ccc(F)cc32)CC1 (stereo not given),-12.84,45.91,9.783

Source: ChEMBL document CHEMBL3988442, “University of Dundee, Small-Polar-MMV Screening Library” (2021).